Data taken from PubChem BioAssay AID1159506, deposited by NCATS (2015).

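Genome-wide siRNA knockdown in TC32 Ewing sarcoma cells, comparing luciferase light from an NR0B1-promoter reporter with a CMV-promoter reporter 48 hours after transfection. Each siRNA was applied at 20 nM. A z-score of the log NR0B1-over-CMV signal, less the median of siRNAs with the same seed; more negative means a stronger specific loss of the NR0B1 reporter.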

This is part of the screen; most of the strongest results are not listed here. Sequences are the guide (antisense) strand, without overhang.

* UUCUUCAUGACGGCCGAGG against RUNX3 | seed-corrected z-score -0.8067
* UGAAGAGCGACAGAUGGGU against TRAF1 | seed-corrected z-score -0.0552
* UUCUGUGACGCAACUGUUG against BNIP1 | seed-corrected z-score -0.6344
* AUUGAAUCCUGGAUUACUG against PRH1 | seed-corrected z-score 1.135
* AGCAUUAUCAACAUGAUCA against RNASEK | seed-corrected z-score 0.1716
* UCAGCAACCUUGGUGUAGU against HOGA1 | seed-corrected z-score -0.7557
* UAUAGAUCUUGGUUAGACA against C1orf61 | seed-corrected z-score 0.2465
* UCAUUUCUCCAUCUGAUCG against SWSAP1 | seed-corrected z-score -1.71
* AUUUGGUUCAGAUUGUCUG against ECM1 | seed-corrected z-score 0.3428
* UUGGUUCCGAAGGUCCUCC against PPP1R12C | seed-corrected z-score -0.9296
* AAAGAUGUGAGAUCUGUCU against GPRIN1 | seed-corrected z-score 0.3361
* UGAUGAUGUAUUGCUCUCC against GLRX2 | seed-corrected z-score -1.379
* AAUCUGAUCAUAGUACCUG against PLXNB3 | seed-corrected z-score 0.08767
* UCCAAUUACAGAGCCUUCC against LOC401123 | seed-corrected z-score -0.3977
* AAAGUCUGAAUCCUAAUUC against COLCA1 | seed-corrected z-score 0.177
* AUAUUACUCUGUCCGAUCU against CCDC64B | seed-corrected z-score 0.8545
* UCUGGUACUAAGGACAGCC against CFTR | seed-corrected z-score 0.4819
* UACUGCUUCCGGUUCAUCC against BHMG1 | seed-corrected z-score -1.032
* ACUGUGGUCACUUCCAGGC against MEA1 | seed-corrected z-score -1.445
* UUACAAGCCUGUAAGCCCA against IQCF5 | seed-corrected z-score -0.8616
* UCACGUAGUAGAGGCACUG against PREB | seed-corrected z-score 0.9294
* UCUCCUUUAAGCGAUCUUC against MPP3 | seed-corrected z-score 0.3568
* UUCAAUGACGGCAUCUUUG against RTFDC1 | seed-corrected z-score 0.9632
* UUCCUCACUAUUCCACACC against RNF167 | seed-corrected z-score 0.6004
* UUCUCGGCCUUUACUAGCA against PRELID3B | seed-corrected z-score 0.08478
* UAAAAUUUAUUAGACCUUG against KRTAP1-3 | seed-corrected z-score 0.2583
* UUGGUUGGGACUUCAUUCG against ZC2HC1B | seed-corrected z-score -0.1657
* AACUGACUACCUUCUUUCC against ZNF709 | seed-corrected z-score -1.664
* AAAGUGGUCAGGCUCUGCC against JMJD7-PLA2G4B | seed-corrected z-score -1.962
* AAUACUUCCAGAGUGACUG against JAM2 | seed-corrected z-score -0.06457
* ACAUUCUUUACUCAUACUG against LOC645680 | seed-corrected z-score 0.02907
* AAACUGCUCAAAGACCACG against AOC1 | seed-corrected z-score -1.854
* UCCUUUGGAAUGUACGUCU against ZNF516 | seed-corrected z-score 0.875
* UUCCUGAACACGUAUCUAG against CNTN4 | seed-corrected z-score 1.181
* UAUCUAUGUAAGGAUCGGC against CD109 | seed-corrected z-score -0.4366
* UUUGAGUUGACCAAUCUUG against RAB3C | seed-corrected z-score -0.09595
* UGUGAGGUCAGAUAGUCGG against TELO2 | seed-corrected z-score -0.156
* AAAACGAUAGAUUUGACUG against NCOA2 | seed-corrected z-score 0.5554
* ACUGUUACCACCAUUGAGA against FAM83C | seed-corrected z-score -0.3625
* UUUGGAUCUUGUCUACUGC against TSPAN6 | seed-corrected z-score 1.529
* UACUGAAGAAGUUGUGGUC against DHFRL1 | seed-corrected z-score 0.655
* UUCCGGAUGAUGCCUUUCC against FBXO10 | seed-corrected z-score 0.2667
* AACAGUAACUUCCAAAUGC against YAF2 | seed-corrected z-score 0.2264
* UCACUAUCCGGUGAAACUG against NUDT19 | seed-corrected z-score -1.561
* ACAUUGUUUACAUCGAUAG against ZNF14 | seed-corrected z-score 0.5602

Some entries from above, unchanged:

strand	target gene	seed-corrected z-score
UCACUAUCCGGUGAAACUG	NUDT19	-1.561
AAUCUGAUCAUAGUACCUG	PLXNB3	0.08767
UUACAAGCCUGUAAGCCCA	IQCF5	-0.8616
UCUGGUACUAAGGACAGCC	CFTR	0.4819